Results reported in US11071835B2, “Inhalable medicaments” (PHARMACHEMIE B.V., priority 2013, dated 2021).
Values joined by “and” are separate entries in the source; they are usually repeats but may differ in a detail not shown here. Equal values may be shown once. Where a name gives a salt, the structure may show the parent alone.

Details: individual micronised formoterol fumarate dihydrate batches, dry dispersion

Row | Structure (SMILES) | PSD <10 μm | PSD d10 | PSD d50 | PSD d90
1 | COc1ccc(CC(C)NCC(O)c2ccc(O)c(NC=O)c2)cc1 (stereo not shown) [7544MA, formoterol fumarate dihydrate] | 100% | 0.5 μm (5×) and 0.6 μm (2×) | 1.6 μm (5×) and 1.8 μm and 1.7 μm | 3.3 μm (4×) and 3.4 μm (2×) and 3.2 μm
2 | COc1ccc(CC(C)NCC(O)c2ccc(O)c(NC=O)c2)cc1 (stereo not shown) [7544MO, formoterol fumarate dihydrate] | 99% (2×) and 100% (3×) | 0.5 μm | 1.7 μm (3×) and 1.9 μm and 1.8 μm | 
